# Measurements as given in article PMC11079029, “Intramolecular autoinhibition regulates the selectivity of PRPF40A tandem WW domains for proline-rich motifs” (Nature Communications, 2024).
# Chains of the proteins cited; added tags and fusions are not shown. Residues count along the entry.
# UniProt O75400, residues 141-236: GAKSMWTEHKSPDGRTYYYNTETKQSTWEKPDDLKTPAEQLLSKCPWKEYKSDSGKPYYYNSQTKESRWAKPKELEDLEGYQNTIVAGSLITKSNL
# No constants are given. Whether binding was seen depends on the method and setting.
# Tests used:
# [1] = molecular target: T1, GB1-SF1(387-402) 16-mer peptide; assay: ITC; MicroCal PEAQ-ITC, 25 °C, 20 mM sodium phosphate pH 6.5, 100 mM NaCl; PRPF40A constructs and GB1-tagged SF1 16-mer peptides; who was in the syringe is not stated for these panels (Fig. 2B, Fig. 5C); one-site model; both purified
# T1 sequence: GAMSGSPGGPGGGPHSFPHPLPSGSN
# [2] = molecular target: T2, GB1-SF1(342-357) 16-mer peptide; assay: as above
# T2 sequence: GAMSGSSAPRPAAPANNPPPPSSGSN
substance,measurement,setting,value
"PRPF40A WW12 (tandem WW domains, residues 141-236) (from UniProt O75400 141-236) (domain or fragment)",binding,[1],"no binding (tested: cell around 20–40 uM, syringe 200–500 uM)"
same,binding,[2],"no binding (tested: cell around 20–40 uM, syringe 200–500 uM)"
